{"source": "paper PMC4096401", "binders": {"B1": {"name": "caveolin-1, Q03135 1-178 (protein)", "chain": "MSGGKYVDSEGHLYTVPIREQGNIYKPNNKAMADELSEKQVYDAHTKEIDLVNRDPKHLNDDVVKIDFEDVIAEPEGTHSFDGIWKASFTTFTVTKYWFYRLLSALFGIPMALIWGIYFAILSFLHIWAVVPCIKSFLIEIQCISRVYSIYVHTVCDPLFEAVGKIFSNVRINLQKEI"}}, "biological_target": "T1, endothelial nitric oxide synthase (human (endogenous in HLMVEC)), P29474", "T1 chain": "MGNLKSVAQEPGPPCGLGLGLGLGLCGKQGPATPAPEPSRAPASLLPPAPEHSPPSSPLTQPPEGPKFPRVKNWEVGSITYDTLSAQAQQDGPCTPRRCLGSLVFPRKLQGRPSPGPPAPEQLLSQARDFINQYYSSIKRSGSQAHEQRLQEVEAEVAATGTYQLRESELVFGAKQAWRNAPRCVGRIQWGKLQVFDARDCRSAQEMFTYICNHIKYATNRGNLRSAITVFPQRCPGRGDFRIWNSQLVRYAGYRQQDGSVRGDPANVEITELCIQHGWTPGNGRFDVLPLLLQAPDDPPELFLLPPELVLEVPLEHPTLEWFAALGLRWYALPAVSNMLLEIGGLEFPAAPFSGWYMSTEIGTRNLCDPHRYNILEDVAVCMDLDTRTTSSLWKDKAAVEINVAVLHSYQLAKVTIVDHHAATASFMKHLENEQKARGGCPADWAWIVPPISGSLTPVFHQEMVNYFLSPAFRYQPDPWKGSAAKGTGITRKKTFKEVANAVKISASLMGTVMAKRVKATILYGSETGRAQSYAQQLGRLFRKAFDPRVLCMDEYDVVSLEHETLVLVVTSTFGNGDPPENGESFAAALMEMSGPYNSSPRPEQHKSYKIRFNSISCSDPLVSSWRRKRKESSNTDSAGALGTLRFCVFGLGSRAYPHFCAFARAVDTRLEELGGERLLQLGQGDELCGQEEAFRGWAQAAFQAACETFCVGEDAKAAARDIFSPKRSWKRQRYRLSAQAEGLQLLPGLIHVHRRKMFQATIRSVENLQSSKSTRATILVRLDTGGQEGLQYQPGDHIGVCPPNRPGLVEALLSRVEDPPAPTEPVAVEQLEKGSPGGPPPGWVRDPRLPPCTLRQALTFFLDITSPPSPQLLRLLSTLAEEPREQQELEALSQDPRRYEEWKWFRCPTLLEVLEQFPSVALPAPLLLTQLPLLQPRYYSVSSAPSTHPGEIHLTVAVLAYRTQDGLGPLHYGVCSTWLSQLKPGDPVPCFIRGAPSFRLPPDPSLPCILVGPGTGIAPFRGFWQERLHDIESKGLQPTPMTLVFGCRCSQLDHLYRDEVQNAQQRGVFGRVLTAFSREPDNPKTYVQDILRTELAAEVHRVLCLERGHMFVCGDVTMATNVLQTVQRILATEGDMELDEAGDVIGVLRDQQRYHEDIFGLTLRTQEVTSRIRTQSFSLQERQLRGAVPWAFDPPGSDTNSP", "experiment": "co-IP; anti-eNOS immunoprecipitation from HLMVEC lysates (20 mM Tris-HCl pH 7.4, 1% Triton X-100, 100 mM NaCl), 2 h at 4 °C, protein A/G agarose; blots for hsp90 and caveolin-1; cells treated with or without LLO (250 ng/ml, 30 min); non-immune IgG as control", "conditions": "remark: other sources report otherwise", "note": "No constants are given. Whether binding was seen depends on the method and setting. In cells and extracts the contact can be indirect. Some entries that bind do so weakly or less than the wild type."}
{"binder": "B1", "values": [{"measurement": "binding", "result": "binds"}]}
